Screening data, single-dose tests

Data taken from ChEMBL document CHEMBL3988442, “University of Dundee, Small-Polar-MMV Screening Library” (2021).

Mtb cholesterol medium: 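Whole-cell growth test on Mycobacterium tuberculosis, read after 4 days in a medium based on cholesterol and the lipid DPPC; the read-out is not stated. Concentration: 50 µM. Direction is inferred from retests: higher values go with more growth inhibition. Size under these conditions: about 69,000 compounds, about 370 of them at 50% or above in at least one test.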
Mtb glucose medium: 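Growth of Mycobacterium tuberculosis over 3 days (7H9 medium with glucose and tyloxapol); the read-out is not stated. Tested at 50 µM. The record gives no direction; compounds that gave an IC50 in retests scored well above the rest, so higher reads as more growth inhibition. Of about 69,000 compounds tested this way, about 760 (1.1%) reached 50% or more in at least one test.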

Results are given as percent effect.
The record does not define 0% and 100%; most values in the screen are far below 50% and negative numbers occur (in some assays of this library far below -100).
This is an unselected part of the compounds tested.
Two or more numbers in one place are separate tests of the same structure; such repeats can differ widely.

compound | Mtb cholesterol medium | Mtb glucose medium
CC(C)(C)NC(=O)CN1CCCN(c2ccc(C#N)cn2)CC1 | -5.459% & -16.34% | -7.551%
CCOCC1CN(C(=O)c2ccnnc2)Cc2cnn(CC)c21.O=C(O)C(F)(F)F (stereo not drawn) | -9.426% | -1.98%
Cn1cc(CN2CCCC(CCc3c(F)cccc3F)C2)cn1 (stereo not drawn) | -8.137% | 12.87%
Cc1cccc(N2CCC3(CCCN(C(=O)Cc4cccnc4)C3)C2)n1 (stereo not drawn) | -1.85% | -28.16%
Cc1cnc(N(C)CCCc2cnn(C)c2)nc1N(C)C | -12.7% | -59.91%
c1ccc(-c2nc(CN3CCn4c(nnc4C4CC4)C3)no2)cc1 | -5.679% | 2.01% & 3.492%
COc1ncccc1C(=O)N1CCc2c(ncnc2N2CCOCC2)C1 | -24.23% | -10.92%
COc1cc(C2CC(=O)c3c(O)cc(O)cc3O2)ccc1O (stereo not drawn) | 5.631% | 23.2% & 7.913%
Cc1n[nH]cc1CNC1CCN(c2cccc(C(F)(F)F)c2)CC1 | 2.79% | -3.879%
CS(=O)(=O)c1ccc(NC(=O)NC2(c3ccccc3)CCC2)cc1 | -8.938% | 18.25% & 6.965%
OCC1(O)CCCN(Cc2noc(-c3ccccc3)n2)CC1 (stereo not drawn) | -6.056% | -12.63% & 4.237%
Fc1cnc(N2CCOCC3(CCCN(c4cnccn4)C3)C2)nc1 (stereo not drawn) | 25.69% | 69.89%
O=c1oc(-c2ccc(F)cc2)nn1CN1CCN(CC2CC2)CC1 | -7.131% | 20.41%
CC(C)c1noc(OCc2cccc(S(=O)(=O)N(C)C)c2)n1 | -8.531% | -5.907%
Cl.Cl.O=C(NCc1cncc2c1CCN(Cc1cccs1)C2)C1CC1 | -20.64% | -22.23%
O=C(O)C(F)(F)F.O=C(O)C(F)(F)F.[H][C@@]12COC[C@@H](C(=O)Nc3cccnc3)[C@]1([H])CN(C1CCCC1)C2 | -5.594% | 2.145%
Cc1nn(C)c(N(C)C)c1CNCC(O)c1ccccc1 (stereo not drawn) | -30.35% | -2.828% & -18.71%
Cc1c(C(=O)N2CCCC(n3nnc4cc(F)ccc43)C2)cnn1C (stereo not drawn) | -0.4478% | 2.353%
Nc1nc2c(c(NCc3ccncc3)n1)CCCC2 | -27.81% | -10.85%
Cc1ccccc1OCCC(=O)N(C)Cc1c(C)noc1C | 2.737% | 29.29%
CC(Cn1ccnc1)NS(=O)(=O)Cc1ccc(F)cc1 (stereo not drawn) | -10.77% | -5.698%
[H][C@@]12C[C@H](c3nnc(C)o3)CN(S(=O)(=O)CC(C)C)[C@]1([H])CCO2 | -12.88% | -53.8% & -3.663%
Cc1cnn(CC2CCCN2C(=O)CCc2cscn2)c1 (stereo not drawn) | 0.9178% | 22.27%
CSC(C)(C)CNC(=O)NC1CCN(CC(F)F)CC1 | -17.15% & -2.584% | 11.4%
NC(=O)C1CCN(C(=O)CCn2ccc3ccc(Br)cc32)CC1 | 7.931% | 15.95%
COCC(=O)N1CCN(CC2CC2)c2ncccc2C1 | -33.19% & -34.67% | -40.17%
CS(=O)(=O)NCCNC(=O)C1(c2cccc(Cl)c2)CC1 | 13.24% | 15.43% & -4.515%
CCc1ccc(CN2CCC3(CCCN(C(=O)N(C)C)C3)C2)o1 (stereo not drawn) | -14.97% | -0.4561% & -12.96%
CCN(Cc1noc(CC(C)C)n1)Cc1ccccc1OCC(=O)O | -9.27% | 2.975%
COc1cccc(COCC(=O)N2CCCC(N3CCCC3)CC2)c1 (stereo not drawn) | 6.352% | -11.75%
CCc1ccsc1C(=O)NC(Cc1ccccc1)C(N)=O (stereo not drawn) | 20.57% | 1.37% & 22.94%
O=C1OCCN1Cc1cccc(C(F)(F)F)c1F | 0.4017% | -26.85%
[H][C@@]12CCC(=O)N(CCc3c[nH]cn3)[C@]1([H])CCN(Cc1coc(C)n1)C2 | -9.901% & -14.26% | -4.324%
C=C(C)COc1cccc(C(=O)N(CC)Cc2nccn2C)c1 | 11.71% | 27.29%
O=C(NCCOc1ccc2c(c1)OCO2)N1CCC1 | -2.172% | 0.2777%
Cn1nc(C(=O)NCc2cccs2)c2c1CCS(=O)(=O)C2 | -1.862% | 8.452%
CCC(CC)C(O)CNC(=O)Cc1c[nH]c2ncccc12 (stereo not drawn) | -5.763% | 4.582% & -1.468%
CC(C)N(C)C(=O)c1ccc(Cl)c(NC(=O)CCN2C(=O)CCC2=O)c1 | 1.068% | 18.42%
CCn1ccnc1CN1CCN(C(C)C(=O)N2CCCCCC2)CC1 (stereo not drawn) | -5.043% | -17.1%
CCc1nccn1CCCNc1nccc(-c2c(C)nn(C)c2C)n1 | 24.19% | -8.532%
CC(C)c1nc(-c2ccnc(N3CCNCC3)n2)no1.Cl.Cl | -7.631% | -18.61% & 7.267%
CC(C)CN(CC(O)c1ccc(F)cc1)C(=O)c1cnsn1 (stereo not drawn) | 1.066% | 8.213%
[H][C@@]12CS(=O)(=O)C[C@]1([H])N(C(=O)C1CCCC1)CCN2Cc1ccncc1 | -16.3% | -10.1% & -1.385%
CCNC(=O)CN(CC)C(=O)Cc1csc(C(C)C)n1 | -16.15% | 12.73%
Cn1c(C2CCCN2C(=O)CN2CCCC2=O)nc2ccccc21 (stereo not drawn) | -18.76% | -32.37% & 3.434%
Cc1nc(N)ccc1CC1COc2ccccc2C1 (stereo not drawn) | -1.286% | 39.78% & 29.39%
Cc1ccc(CNS(=O)(=O)CC2=NC(=O)n3cccc3C2=O)cc1 | -7.73% | 7.944%
COc1ccc(S(=O)(=O)Cc2noc(CC(C)C)n2)cc1 | 40.28% | 45.61%
CCC(C)N(Cc1sccc1C)C(=O)c1ccc(S(C)(=O)=O)cc1 (stereo not drawn) | 2.327% | -4.084% & 1.457%
CN1CCC(c2nnc(CN3CCC(O)CC3)n2C)CC1 | -22.41% | -9.105% & -23.19%

For reference, 3 entries once more:

O=c1oc(-c2ccc(F)cc2)nn1CN1CCN(CC2CC2)CC1 gave Mtb cholesterol medium: -7.131%; Mtb glucose medium: 20.41%.
CS(=O)(=O)c1ccc(NC(=O)NC2(c3ccccc3)CCC2)cc1 gave Mtb cholesterol medium: -8.938%; Mtb glucose medium: 18.25% & 6.965%.
COc1ncccc1C(=O)N1CCc2c(ncnc2N2CCOCC2)C1 gave Mtb cholesterol medium: -24.23%; Mtb glucose medium: -10.92%.